Construct, isoform or probe ends are uncertain for at least one entry. At least one verdict was read from the data and is not stated in words by the source.
Molecular target: LARP6 La-module (Homo sapiens) (UniProt Q9BRS8)
Assay: NMR
Conditions: RNA titration; recombinant protein; residues 70-300; protein details: His tag cleaved by TEV

Chains of the proteins cited; added tags and fusions are not shown. Residues count along the entry.
UniProt Q9BRS8, 70-300: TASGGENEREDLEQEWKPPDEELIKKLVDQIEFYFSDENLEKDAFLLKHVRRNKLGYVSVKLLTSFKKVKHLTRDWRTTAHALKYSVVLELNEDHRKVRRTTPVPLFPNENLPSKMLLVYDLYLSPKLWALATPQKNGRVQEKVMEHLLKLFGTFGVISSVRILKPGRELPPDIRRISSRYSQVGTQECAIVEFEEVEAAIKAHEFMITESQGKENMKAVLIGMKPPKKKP

## CUAAAUACAACACUGAUACUAGAUU [CTNNA1 P1 (SAXS/NMR)]
  binding result: binds

— PMC13031558
